According to PubChem BioAssay AID493014 (National Center for Advancing Translational Sciences (NCATS), 2011):
About 170 (0.05%) of roughly 340,000 compounds were called active. The shares of active, inactive and inconclusive entries below differ from those in the screen. Calls follow the shape of the dose curve; as a rule, active = well fitted inhibition curve with a large enough effect in the signal ratio, with a control signal flat (not every such curve was filed as active); inconclusive = small, poorly fitted or top-dose-only effect, or effect the other way, or a change in a side signal; inactive = flat fitted curve, though single readings scatter; the % refers to the signal ratio. Where the call is inconclusive, the potency comes from a doubtful curve fit.

assay: qHTS Assay to Find Inhibitors of Chronic Active B-Cell Receptor Signaling; details: ABC-DLBCL IkBa-CBG/CBR reporter, luminescence ratio (green luciferase fused to IkBa over red control in TMD8 lymphoma cells), 4 h; activity change, negative = inhibition: at 46.1 µM (top of the series) unless noted;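 as to activity change, negative = inhibition: plate controls were basal doxycycline-induced cells for no effect and cells given 10 µM MG132 for full effect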
In short: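 Cell line TMD8 (human ABC DLBCL), stably expressing tet-inducible CBG68-IkBa fusion and CBR; IMDM/0.5% FBS; cpd up to 46 uM; dox induction, 4 h, 37C/5% CO2; dual luminescence; green/red ratio; MG132 control.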
Potency is read from the fitted curve at half-maximal effect.

Compound	activity change, negative = inhibition	Potency
CCCc1cc(=O)oc2c(C)c(O[C@@H]3O[C@H](CO)[C@@H](O)[C@H](O)[C@H]3O)ccc12	inconclusive: -3.35%	
O=C(Nc1ccccc1)NC1CS(=O)(=O)CC1O (centres undefined)	inactive	
O=C(CSc1nnc(CCCO)n1-c1ccccc1)NCCc1ccccc1	inconclusive: 3.31%	
CC12CCC(C(=O)NCc3ccccc3)(OC1=O)C2(C)C (centres undefined)	inconclusive: 0.413%	
COc1ccc(/C=N/NC(=O)c2sc(C)nc2C)cc1		inconclusive: 15.8 µM [falling, partial curve]
CCOC(=S)SCC(=O)N1CCc2cc(OC)c(OC)cc2C1C1C(=O)CC(C)(C)CC1=O (centres undefined)	inconclusive: -14.8%	
O=C(COC(=O)C1=COCCO1)Nc1cc(Cl)c(Cl)cc1Cl	inconclusive: 1.88%	
COCC(=O)OCC(=O)Nc1cc(C(C)(C)C)nn1-c1ccccc1	inconclusive: -18.5%	
NS(=O)(=O)c1ccc2nc(NC(=O)Nc3ccc(F)cc3)sc2c1		inconclusive: 17.8 µM [falling, partial curve, poor fit]
CC1CC(C)CN(CCCNC(=O)Cn2ncn3cccc3c2=O)C1 (centres undefined)	inconclusive: 15%	
CC(=O)c1ccc(NC(=O)C(C)N(C)CC(=O)Nc2ccccc2Cl)cc1 (centres undefined)	inconclusive: 0.686%	
Cc1cc(C)c(C#N)c(SCC(O)COc2ccc(Br)cc2)n1 (centres undefined)	inconclusive: 17.3%	
C/C(=N\NC(=O)c1c(Cl)c(C)nn1C)c1ccc(NC(=O)c2ccncc2)cc1		inconclusive: 20.6 µM [cytotoxic, single point]
Fc1ccc(CSc2nnc(-c3cccs3)o2)cc1	inconclusive: 3.63%	
C=CCC(C)(NCc1ccccc1)c1ccc(C)cc1 (centres undefined)	inconclusive: 2.31%	
COc1cc(C2CC(=O)Nc3ccccc3S2)cc(OC)c1OC (centres undefined)	inconclusive: 5.79%	
CCc1ccc(NC(=O)CN(C)S(=O)(=O)c2ccc3[nH]c(=O)oc3c2)cc1	inconclusive: 3.82%	
COc1ccc(C(=O)NNC(=O)c2cccc(F)c2)cc1	inconclusive: 336%	
Cc1ccc(-c2cc(C(=O)NCCCN3CCCC3)c3ccccc3n2)cc1C	inactive	
CSc1ccc(/C=C/C(=O)NC(=O)c2ccccc2O)cc1		inconclusive: 35.5 µM [rising, single point]
Cc1ccc(NC(=S)Nc2ccc(Cl)c(Cl)c2)c(OC(F)F)c1	inactive	
COc1ccc(CC(=O)Nc2cccc(C(=O)NN3C(=O)c4ccccc4C3=O)c2C)cc1	inconclusive: -0.411%	
C=CCOc1ccc(/C=N\NC(N)=S)cc1	inconclusive: -28.1%	
CCOc1cc(/C=N/N=C/c2ccc(O)c(OCC)c2)ccc1O	inconclusive: -5.39%	
Cc1cc(C(=O)N/N=C/c2cccc([N+](=O)[O-])c2)c(C)n1-c1ccccc1	inconclusive: 0.187%	
Cc1onc(-c2c(F)cccc2Cl)c1C(=O)Nc1ccccc1N1CCOCC1	inactive	
C/C(CC(=O)Nc1cccc2c1CCCC2)=N\NC(=O)c1ccccc1N		inconclusive: 12.6 µM [falling, partial curve]

Compound	activity change, negative = inhibition	Potency
CC(/C=C/c1ccccc1)=N\NC(=O)CSc1ccccn1	inconclusive: 4.2%	
COc1ccc(-c2cc(C(=O)NN)[nH]n2)cc1	inconclusive: -10.9%	
S=C(NCCc1ccccn1)NC1CC2CCC1C2 (centres undefined)	inconclusive: -7.43%	
O=C(c1ccccc1)c1c[nH]c2ccccc12	inconclusive: 6.59%	
O=C1C(C2=NC(C(=O)O)C3C(=O)N(c4ccccc4)C(=O)C23)=C(O)c2ccccc21 (centres undefined)	inactive	
CC(CC(=O)c1cccs1)CC(=O)c1cccs1	inconclusive: 12%	
O=C(NC1CC2CCCC(C1)N2C(=O)Nc1ccccc1)c1ccncc1 (centres undefined)		inconclusive: 13 µM [rising, partial curve]
Cc1ccc2nsnc2c1NC(=O)CCl	inactive	
Cc1ncc(CN2CCC(CO)(CCc3ccccc3)CC2)s1		inconclusive: 35.5 µM [falling, single point]
Nc1nc(-n2cnnc2)nn1-c1ccccc1	inconclusive: -1.93%	
COc1ccc(CNC(=O)C2CCN(S(=O)(=O)c3cccc4nsnc34)CC2)cc1	inconclusive: -0.31%	
O=C(NNC(=O)c1ccc(NC(=O)c2ccccc2)cc1)c1ccc(F)cc1	inconclusive: 6.15%	
NC(=O)c1ccccc1-c1nc(-c2ccccc2)no1	inconclusive: -15.7%	
CC(=O)c1ccc(NC(=S)N2CCC(Cc3ccccc3)CC2)cc1	inconclusive: -1.53%	
C=CCn1cccc(/C=C/C(=O)c2ccc(C(C)(C)C)cc2)c1=S		inconclusive: 20.6 µM [falling, single point]
CN(C)/C=C(\C#N)C(=O)c1cccc(Oc2ccc(Br)cc2)c1	inconclusive: 9.06%	
COc1ccc(NS(=O)(=O)c2ccc(S(=O)(=O)N3CCOCC3)cc2)cc1	inactive	
CSc1ccc(Cl)c(C(=O)Nc2ccc(C)cn2)c1		inconclusive: 22.4 µM [falling, single point]
O=C(N/N=C/c1ccc(Br)s1)c1cccs1		inconclusive: 17.8 µM [falling, single point]
Cc1csc(NC(=O)c2ccc[nH]c2=O)n1		inconclusive: 35.5 µM [falling, partial curve, poor fit]
CC(Oc1ccc(Br)cc1)C(=O)NC1CCCCCC1 (centres undefined)	inconclusive: 4.28%	
COc1ccc(NC(=O)NN2CCN(C)CC2)cc1OC	inconclusive: 5.61%	
O=C(CCCCl)NC(=S)Nc1cc(C(F)(F)F)ccc1N1CCOCC1	inactive	
CC(C)(C)OC(=O)[C@H](Cc1ccccc1)NC(=O)c1nc[nH]c1C(=O)NCCCCCN	inconclusive: -14.3%	
Cc1c(NC(=O)CSc2nnnn2Cc2ccccc2)c(=O)n(-c2ccccc2)n1C	inconclusive: 6.07%	
Cc1ccccc1OCCn1cc(C(=O)C(=O)N2CCOCC2)c2ccccc21	inconclusive: -18.5%	
N#C/C(C(=O)N1CCCCC1)=C1\Nc2ccccc2S1		inconclusive: 20.6 µM [falling, partial curve]

2 entries from above, as a markdown table:

| Compound | activity change, negative = inhibition | Potency |
| --- | --- | --- |
| O=C(NNC(=O)c1ccc(NC(=O)c2ccccc2)cc1)c1ccc(F)cc1 | inconclusive: 6.15% |  |
| N#C/C(C(=O)N1CCCCC1)=C1\Nc2ccccc2S1 |  | inconclusive: 20.6 µM [falling, partial curve] |
